From ChEMBL document CHEMBL3988442, “University of Dundee, Small-Polar-MMV Screening Library” (2021).

Each number is a percent effect as filed. How 0% and 100% were set is not recorded. Most values in the screen are low, and negative values occur. Compounds were drawn at random from those tested, without regard to their results.

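Whole-cell assay for inhibitors of Mycobacterium tuberculosis growth, labelled Cornell in the record; the read-out is not stated. The concentration is filed as 10 mM, unlikely as a test dose, so the dose is not known. Higher means stronger inhibition (inferred from two other growth screens of the library). Of about 53,000 compounds tested this way, about 900 (1.7%) reached 50% or more in at least one test.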

structure: CC(C(=O)NCC1(c2c(F)cccc2F)CCCC1)S(C)(=O)=O (stereo not shown)
effect: 1.358

structure: CN(CCNC(=O)Nc1nccs1)Cc1ccc(F)cc1
effect: -0.3663

structure: CCCc1cc(C(=O)NC(C)c2ccccc2)n(C)n1 (stereo not shown)
effect: 4.893

structure: CSc1ncccc1C(=O)NCCC(O)c1cccs1 (stereo not shown)
effect: 19.86

structure: O=C(NCC(O)COc1ccccc1)Nc1nncs1 (stereo not shown)
effect: -11.74

structure: O[C@@H]1CN(c2noc(C3CC3)n2)CC[C@H]1c1ccc2ccccc2c1
effect: -19.76

structure: CC(C)(C)CN(CCC#N)Cn1cc(Cl)cn1
effect: 8.649

structure: O=C(O)C(F)(F)F.[H][C@@]12CCN(Cc3nccs3)C[C@]1([H])O[C@H](C(=O)N(C)C)C2
effect: 9.362

structure: CN(C)C(=O)c1nn(C)c2c1CN(Cc1ccc(F)cc1)C2.O=C(O)C(F)(F)F
effect: -13.43

structure: Cc1ccc(C)c(Oc2cc(-n3nc(C)c(C#N)c3N)nc(C)n2)c1
effect: 17.11

structure: Cc1nc(N2CCC(CC(=O)N3CCCC3)CC2)c2cnn(C)c2n1
effect: 3.468

structure: O=C(CN1CCCC1)N1CCCC1c1nc(O)cc(-c2ccccn2)n1 (stereo not shown)
effect: -37.02

structure: CCN1c2ccc(-c3cncn3CCCn3ccnc3C)cc2CC1C.Cl (stereo not shown)
effect: 54.49

structure: O=C(NCc1ccncc1)C1CN(c2nc3ccccc3s2)CCN1 (stereo not shown)
effect: 13.12

structure: CC(C)c1nsc(N2CCOCC2)n1
effect: 7

structure: O=C1CCC2(CCN(Cc3cscn3)CC2)CN1CCCO
effect: 5.461

structure: Cc1ccc(S(=O)(=O)N2CCC(c3n[nH]cc3C)C2)cc1 (stereo not shown)
effect: -7.302

structure: O=C(O)C(F)(F)F.[H][C@@]12C[C@@H](c3nnc(C)[nH]3)O[C@]1([H])CN(C1CCC1)C2
effect: 1.545

structure: CN1CC2(CCCN(CCOCc3ccccc3)C2)OC1=O (stereo not shown)
effect: 17.75

structure: CN(C)C(=O)N1CCN(C(=O)c2ccc(Cl)cc2)CC2(CNC(=O)C2)C1 (stereo not shown)
effect: -7.416

structure: O=C(c1ccncc1)N1CCN(c2ccc(F)cc2Cl)CC1
effect: -12.56

structure: Cc1nc(CN(C)C(=O)c2cc(C)sc2NC(=O)C(C)(C)C)no1
effect: 1.902

structure: Cc1cc(NC(=O)CCn2cncn2)no1
effect: -18.98

structure: CCOC(=O)C1(Cc2cccc(OC)c2)CCN(Cc2ccon2)CC1
effect: 32.43

structure: CNC(=O)COc1ccc(CNCc2c(C)nn(C)c2N(C)C)cc1
effect: -6.953

structure: COc1ccc(C[C@H]2CN(Cc3ccoc3)CC[C@H]2OC)cc1.O=C(O)C(F)(F)F
effect: 18.94

structure: COCC(C)N1CCc2onc(-c3ccc(C(F)(F)F)cc3)c2C1 (stereo not shown)
effect: 14.3

structure: N#Cc1ccc(S(=O)(=O)NCCn2ccnc2)cc1Cl
effect: -1.506

structure: COc1ccc(CC(=O)N2CCc3nnc(N(C)C)cc3C2)cc1F
effect: -12.02

For reference, 2 entries once more:

{"structure": "O[C@@H]1CN(c2noc(C3CC3)n2)CC[C@H]1c1ccc2ccccc2c1", "effect": -19.76}
{"structure": "CNC(=O)COc1ccc(CNCc2c(C)nn(C)c2N(C)C)cc1", "effect": -6.953}